Results: publication PMC7231995
Changes are numbered by the printed parent chain. These are yes or no findings as the source states them, for the method shown. In cells and extracts the contact can be indirect. These calls come from enrichment with a bait or labelling near it, and not all partners need be listed. Where a sequence is shown, tags or fusion partners need not be part of it.

What was measured:
[1] = biological target: T1, YqgP-sfGFP (functional fusion of Bacillus subtilis rhomboid protease YqgP with sfGFP) (Bacillus subtilis) (UniProt P54493); assay: affinity purification with mass spectrometry; YqgP-sfGFP baits captured on anti-GFP antibody resin (Chromotek) from B. subtilis membranes solubilised with 1% NP-40, 3 h at 4°C; label-free NanoLC-MS/MS; control: wild-type strain BTM2 without bait
T1 sequence: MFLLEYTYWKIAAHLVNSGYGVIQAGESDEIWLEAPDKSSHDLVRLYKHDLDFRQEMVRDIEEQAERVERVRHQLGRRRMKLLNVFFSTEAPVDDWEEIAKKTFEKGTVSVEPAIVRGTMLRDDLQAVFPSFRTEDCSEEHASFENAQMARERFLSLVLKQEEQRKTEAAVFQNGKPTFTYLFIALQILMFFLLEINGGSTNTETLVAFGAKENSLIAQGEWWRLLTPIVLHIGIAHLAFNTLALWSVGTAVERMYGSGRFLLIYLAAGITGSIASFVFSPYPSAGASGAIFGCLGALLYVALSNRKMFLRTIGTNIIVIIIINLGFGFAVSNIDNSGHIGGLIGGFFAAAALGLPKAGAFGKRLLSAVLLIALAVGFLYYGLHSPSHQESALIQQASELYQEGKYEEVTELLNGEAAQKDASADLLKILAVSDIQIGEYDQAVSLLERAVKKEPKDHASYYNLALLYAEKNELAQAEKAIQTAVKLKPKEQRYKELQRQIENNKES

[2] = biological target: T2, YqgP.S288A-sfGFP (catalytically dead YqgP fused with sfGFP) (Bacillus subtilis) (UniProt P54493); assay: as above
T2 sequence: T1 sequence with S288A

Substance: ATPase subunit G (from UniProt P37810 1-287)
- binding [1]: binds
- binding [2]: binds

Substance: ATPase subunit D (from UniProt P37809 1-473)
- binding [1]: binds
- binding [2]: binds

Substance: FtsH, membrane-anchored ATP-dependent processive zinc metalloprotease (from UniProt P37476 1-637) (enzyme)
- binding [1]: binds
- binding [2]: binds

Substance: ATPase subunit A (from UniProt P37808 1-502)
- binding [1]: binds
- binding [2]: binds
